Test results taken from PMC8692909.
Results are given in words; binding and its absence hold for the method and conditions named. Binding seen in cells or lysates may run through a third protein. Some binding calls cover weakened binding; strength is not graded here.

By UniProt entry, the sequences of proteins in these tests, tags left out.
UniProt Q8BWG8: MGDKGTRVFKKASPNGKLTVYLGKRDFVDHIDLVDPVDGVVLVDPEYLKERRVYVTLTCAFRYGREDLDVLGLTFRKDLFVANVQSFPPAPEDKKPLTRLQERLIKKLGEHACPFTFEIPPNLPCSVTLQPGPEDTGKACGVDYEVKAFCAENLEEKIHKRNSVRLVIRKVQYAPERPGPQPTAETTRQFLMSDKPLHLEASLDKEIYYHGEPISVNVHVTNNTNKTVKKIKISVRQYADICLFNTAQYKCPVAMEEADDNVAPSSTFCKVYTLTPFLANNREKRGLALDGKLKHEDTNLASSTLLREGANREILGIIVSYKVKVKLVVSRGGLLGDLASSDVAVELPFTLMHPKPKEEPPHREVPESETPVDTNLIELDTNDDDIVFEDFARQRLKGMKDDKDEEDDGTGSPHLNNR
UniProt P70658: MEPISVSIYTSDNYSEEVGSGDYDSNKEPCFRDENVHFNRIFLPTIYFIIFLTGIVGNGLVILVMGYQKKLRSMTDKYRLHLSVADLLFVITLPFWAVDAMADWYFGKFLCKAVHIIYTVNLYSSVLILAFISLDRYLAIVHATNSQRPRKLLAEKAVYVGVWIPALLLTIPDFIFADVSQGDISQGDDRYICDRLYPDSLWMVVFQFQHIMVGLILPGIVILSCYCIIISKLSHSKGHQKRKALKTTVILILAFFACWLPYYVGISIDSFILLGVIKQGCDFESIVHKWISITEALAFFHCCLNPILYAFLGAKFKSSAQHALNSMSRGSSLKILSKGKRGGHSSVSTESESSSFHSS

Molecular target: β-arrestin-1 (mouse (endogenous in MPC5)) (UniProt Q8BWG8)
Assay: co-IP; MPC5 mouse podocytes treated with SDF-1α for 5 min; cell lysates immunoprecipitated overnight at 4 °C with anti-CXCR4 or anti-β-arrestin-1 antibody and protein A/G plus agarose; washed with lysis buffer; immunoblotted for CXCR4, Src and β-arrestin-1

C-X-C chemokine receptor type 4 (from UniProt P70658 1-359)
binding: binds
